From PMC12010153 come the findings set out here.

Sequences of proteins named here, by UniProt entry; tags and fusion partners are left off. A change or cut given only in a name is not applied to a line headed by its entry.
UniProt P36405: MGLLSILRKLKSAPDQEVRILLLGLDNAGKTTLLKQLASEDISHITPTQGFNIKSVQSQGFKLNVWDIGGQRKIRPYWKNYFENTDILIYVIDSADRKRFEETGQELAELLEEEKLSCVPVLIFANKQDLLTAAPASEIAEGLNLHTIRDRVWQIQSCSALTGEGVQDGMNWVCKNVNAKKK

These are yes or no findings as the source states them, for the method shown. In cells and extracts the contact can be indirect. Some entries that bind do so weakly or less than the wild type. Tags and fused reporters may be left off the sequences shown.

The experiment deals with T1, RP2-GFP (UniProt O75695).
T1 sequence: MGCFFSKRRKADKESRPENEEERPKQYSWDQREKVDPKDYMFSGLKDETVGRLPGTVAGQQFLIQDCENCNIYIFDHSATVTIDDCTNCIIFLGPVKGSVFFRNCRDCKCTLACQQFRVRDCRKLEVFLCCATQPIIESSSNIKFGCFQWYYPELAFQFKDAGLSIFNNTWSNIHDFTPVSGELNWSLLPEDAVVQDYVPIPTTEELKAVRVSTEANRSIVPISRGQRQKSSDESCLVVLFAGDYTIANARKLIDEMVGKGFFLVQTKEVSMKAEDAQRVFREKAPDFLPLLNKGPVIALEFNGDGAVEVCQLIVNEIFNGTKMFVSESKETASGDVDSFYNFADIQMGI
Description: co-IP; HEK293 cells co-transfected with GFP-RP2 and VSV-ARL3 plasmids, 48 h; lysis in 10 mM Tris/Cl pH 7.5, 150 mM NaCl, 0.5 mM EDTA, 0.5% Nonidet P40 Substitute; lysates on GFP-Trap Magnetic Agarose beads; blots with anti-GFP and anti-VSV.

Turning to “ARL3-G70E-VSV (from UniProt P36405 1-182)”, the binding entry was “binds”.

For “ARL3-Q71L-VSV (from UniProt P36405 1-182)”, the binding result was “binds”.
